Data as given in PubChem BioAssay AID192 (DTP/NCI, 2004).
The list shows only some results of the screen, not a fair sample: it gathers tests that were run many times, whatever their T/C, doses with no T/C, and many T/C values between a quarter and a half above the control. Other doses and runs of a compound stand elsewhere. T/C: endpoint of the treated group in % of that of the vehicle group. Some entries give survivors of the animals treated and no T/C: the source holds a T/C of zero for them, seemingly a mark for toxic or unscored doses. Some survivor counts are full or nearly so, which does not show that the dose was tolerated: the source hardly ever lists a survival T/C far under the control, and the zero likely stands for such cases as well. Counts of survivors are from the toxicity check (mostly the fifth day) where no day follows; animals may have died later. Schedule codes are those of the source, taken here to give the interval after Q, in days (D) or hours (H), and the number of doses after X. For survival time, the PubChem record calls one and a half times the control and up active, and a quarter to a half above the control has no call in these data; cut-offs in other NCI protocols can differ. Some entries hold several experiments; the results are listed from low to high. Numbered stars: 1 amine (or outer) side, 2 acyl side, 3 side chain; on linkers, the order of the positions; unused ones are H or OH. Bridge positions count the residues as written; N and C are the ends. Square brackets hold non-standard residues; d marks the D form. Peptide text beside a SMILES is read from it. I, II: the chains in the order shown. Actinocin(9to1) = Cc1c2oc3c(C)ccc(C(=O)[*:1])c3nc-2c(C(=O)[*:2])c(N)c1=O; NMeV = CN[CH](C(=O)O)C(C)C; Pip = O=C(O)[CH]1CCCCN1; Sar = CNCC(=O)O

System: BDF1 mice, B16 melanoma ip, median survival T/C
Assay: NCI In Vivo Anticancer Drug Screen. Data for tumor model B16 Melanoma (intraperitoneal) in B6D2F1 (BDF1) mice
Details: T/C endpoint: median survival time, higher T/C = longer survival
Method in brief: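 Read-out: survival or tumor size, given as treated/control ratio. Controls received vehicle only; animals bore transplantable tumors.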

[1] = dose: 200.0 mg/kg/injection, schedule: Q01DX009 (ip), vehicle: saline with Tween-80
[2] = dose: 200.0 mg/kg/injection, schedule: Q01DX009 (ip), vehicle: saline
[3] = dose: 200.0 mg/kg/injection, schedule: Q01DX009 (ip), vehicle: Klucel (hydroxypropylcellulose) (HPC)
[4] = dose: 400.0 mg/kg/injection, schedule: Q01DX009 (ip), vehicle: Klucel (hydroxypropylcellulose) (HPC)
[5] = dose: 12.0 mg/kg/injection, schedule: Q04DX003 (ip), vehicle: saline + alcohol
[6] = dose: 100.0 mg/kg/injection, schedule: Q01DX009 (ip), vehicle: Klucel (hydroxypropylcellulose) (HPC)
[7] = dose: 100.0 mg/kg/injection, schedule: Q01DX009 (ip), vehicle: saline with Tween-80

## CCCCOCCN1CCN(CCCN2c3ccccc3Sc3ccc(C(F)(F)F)cc32)CC1
dose: 4.68 mg/kg/injection, schedule: Q04DX003 (ip), vehicle: saline
  survivor count: 10 of 10
dose: 6.25 mg/kg/injection, schedule: Q01DX009 (ip), vehicle: saline
  survivor count: 9 of 10
dose: 9.36 mg/kg/injection, schedule: Q04DX003 (ip), vehicle: saline
  survivor count: 10 of 10

## CCCCCCC(=O)/C=C/c1cccc(OCOCC)c1
[1]
  survivor count: 9 of 10

## CCCCCCCCCCCCCCC/C([O-])=N/[N+](C)(C)CC(C)O (stereo not drawn)
dose: 400.0 mg/kg/injection, schedule: Q01DX001 (ip), vehicle: saline
  survivor count: 10 of 10
dose: 800.0 mg/kg/injection, schedule: Q01DX001 (ip), vehicle: saline
  survivor count: 3 of 10

## CCOC(=O)c1[nH]c(C)nc1/N=N/N(C)C
[2]
  survivor count: 10 of 10

## CNc1nc(NC)nc(NC)n1
[3]
  survivor count: 9 of 10
[4]
  survivor count: 0 of 10

## [Cu+2].[NH-]C(CC(=O)O)C(=O)O.[NH-]C(CC(=O)O)C(=O)O (stereo not drawn)
dose: 18.75 mg/kg/injection, schedule: Q01DX009 (ip), vehicle: saline
  survivor count: 10 of 10
dose: 37.5 mg/kg/injection, schedule: Q01DX009 (ip), vehicle: saline
  survivor count: 3 of 10
dose: 75.0 mg/kg/injection, schedule: Q01DX009 (ip), vehicle: saline
  survivor count: 0 of 10
dose: 150.0 mg/kg/injection, schedule: Q01DX009 (ip), vehicle: saline
  survivor count: 0 of 10

## Cc1nc2ccc(CCN3CCN(c4ccccc4Cl)CC3)cc2[nH]1
dose: 16.5 mg/kg/injection, schedule: Q01DX009 (ip), vehicle: saline
  survivor count: 9 of 10
dose: 33.0 mg/kg/injection, schedule: Q01DX009 (ip), vehicle: saline
  survivor count: 9 of 10
dose: 66.0 mg/kg/injection, schedule: Q01DX009 (ip), vehicle: saline
  survivor count: 0 of 10

## O=C(Nc1cc(Cl)ccc1Cl)c1ccc(Cl)cc1Cl
dose: 50.0 mg/kg/injection, schedule: Q04DX003 (ip), vehicle: saline with Tween-80
  survivor count: 9 of 10
dose: 100.0 mg/kg/injection, schedule: Q04DX003 (ip), vehicle: saline with Tween-80
  survivor count: 10 of 10
dose: 200.0 mg/kg/injection, schedule: Q04DX003 (ip), vehicle: saline with Tween-80
  survivor count: 10 of 10

## O=C(NC(Cc1ccccc1)C(=O)O)OCC1c2ccccc2-c2ccccc21 (stereo not drawn)
[3]
  survivor count: 7 of 10

## COC12[C@@H]3N[C@@H]3CN1C1=C(C(=O)C(NCCSSCCNC3=C(C)C(=O)C4=C(C3=O)C(COC(N)=O)[C@]3(OC)C5N[C@@H]5CN43)=C(C)C1=O)[C@@H]2COC(N)=O (stereo partly drawn)
dose: 0.05 mg/kg/injection, schedule: Q04DX003 (ip), vehicle: other
  T/C: 137 % of control
dose: 0.1 mg/kg/injection, schedule: Q04DX003 (ip), vehicle: other
  T/C: 149 % of control
dose: 9.6 mg/kg/injection, schedule: Q04DX003 (ip), vehicle: other
  survivor count: 10 of 10 on day 10
dose: 12.8 mg/kg/injection, schedule: Q04DX003 (ip), vehicle: other
  survivor count: 7 of 10 on day 10
dose: 24.0 mg/kg/injection, schedule: Q04DX003 (ip), vehicle: saline with Tween-80
  survivor count: 10 of 10
dose: 48.0 mg/kg/injection, schedule: Q04DX003 (ip), vehicle: saline with Tween-80
  survivor count: 10 of 10

## Cc1c2oc3c(C)ccc(C(=O)NC4C(=O)NC(C(C)C)C(=O)N5CCCCC5C(=O)N(C)CC(=O)N(C)C(C(C)C)C(=O)OC4C)c3nc-2c(C(=O)NC2C(=O)NC(C(C)C)C(=O)N3CCCCC3C(=O)N(C)CC(=O)N(C)C(C(C)C)C(=O)OC2C)c(N)c1=O (stereo not drawn) (I: TV[Pip][Sar][NMeV] / II: TV[Pip][Sar][NMeV]; ester I:1-I:C, II:1-II:C; linker I:N-II:N via Actinocin(9to1); configuration not given here)
dose: 1.0 mg/kg/injection, schedule: Q01DX009 (ip), vehicle: saline + alcohol
  T/C: 137 % of control
dose: 3.0 mg/kg/injection, schedule: Q04DX003 (ip), vehicle: saline + alcohol
  T/C: 128 and 141 % of control
dose: 4.0 mg/kg/injection, schedule: Q01DX009 (ip), vehicle: saline + alcohol
  T/C: 147 % of control
dose: 6.0 mg/kg/injection, schedule: Q04DX003 (ip), vehicle: saline + alcohol
  T/C: 131 % of control
[5]
  T/C: 141 % of control
  survivor count: 8 of 8

## Oc1nc(/N=C2/N=c3ccc(Cl)cc3=N2)[nH]c1O
[6]
  survivor count: 9 of 10
[3]
  survivor count: 7 of 10
[4]
  survivor count: 7 of 10

## COC1=C2CC(C)CC(OC)C(OC(C)=O)C(C)/C=C(\C)C(OC(N)=O)C(OC)/C=C\C=C(/C)C(=O)NC(=CC1=O)C2=O (stereo not drawn)
dose: 12.5 mg/kg/injection, schedule: Q01DX005 (ip), vehicle: other
  survivor count: 0 of 6
dose: 25.0 mg/kg/injection, schedule: Q01DX005 (ip), vehicle: other
  survivor count: 0 of 6
dose: 50.0 mg/kg/injection, schedule: Q01DX005 (ip), vehicle: other
  survivor count: 0 of 6
dose: 100.0 mg/kg/injection, schedule: Q01DX005 (ip), vehicle: other
  survivor count: 0 of 6
dose: 200.0 mg/kg/injection, schedule: Q01DX005 (ip), vehicle: other
  survivor count: 0 of 6

## CCCOP(OCCC)OCCC
dose: 100.0 mg/kg/injection, schedule: Q01DX009 (ip), vehicle: saline
  survivor count: 10 of 10
[2]
  survivor count: 10 of 10

## OCC(F)(F)C(F)(F)C(F)(F)F
dose: 600.0 mg/kg/injection, schedule: Q01DX009 (ip), vehicle: saline
  survivor count: 10 of 10

## NCCCCS(=O)(=O)Nc1ccc(Nc2c3ccccc3nc3cc([N+](=O)[O-])ccc23)cc1
dose: 25.0 mg/kg/injection, schedule: Q01DX009 (ip), vehicle: saline sonified
  survivor count: 5 of 6
dose: 50.0 mg/kg/injection, schedule: Q01DX009 (ip), vehicle: saline sonified
  survivor count: 5 of 6
dose: 100.0 mg/kg/injection, schedule: Q01DX009 (ip), vehicle: saline sonified
  survivor count: 6 of 6
dose: 200.0 mg/kg/injection, schedule: Q01DX009 (ip), vehicle: saline sonified
  survivor count: 5 of 6
dose: 400.0 mg/kg/injection, schedule: Q01DX001 (ip), vehicle: saline sonified
  survivor count: 4 of 6

## O=S(=O)(NN=C(c1ccccc1)c1ccccc1)c1ccccc1
dose: 50.0 mg/kg/injection, schedule: Q01DX009 (ip), vehicle: Klucel (hydroxypropylcellulose) (HPC)
  survivor count: 10 of 10
[6]
  survivor count: 10 of 10
[3]
  survivor count: 10 of 10
[4]
  survivor count: 10 of 10

## C#CCN(C)/N=N/c1nc[nH]c1C(N)=O
[7]
  survivor count: 10 of 10
[1]
  survivor count: 8 of 10

## C[C@H](N)C(=O)N[C@@H]1[C@H]2C(=C(O)C[C@@H](O)[C@@H]2O)C(=O)O[C@@H]1C
dose: 2400.0 mg/kg/injection, schedule: Q01DX009 (ip), vehicle: saline
  survivor count: 1 of 10

## CCCCCCC#CC(=O)OC
[7]
  survivor count: 10 of 10
[1]
  survivor count: 10 of 10

## NC(=O)c1ncn(C2OC(CO)C(O)C2O)n1 (stereo not drawn)
dose: 320.0 mg/kg/injection, schedule: Q01DX009 (ip), vehicle: saline
  survivor count: 10 of 10
